The target in series [1] is T1, SRF (serum response factor) (UniProt P11831).
T1 sequence (looked up, limits assumed): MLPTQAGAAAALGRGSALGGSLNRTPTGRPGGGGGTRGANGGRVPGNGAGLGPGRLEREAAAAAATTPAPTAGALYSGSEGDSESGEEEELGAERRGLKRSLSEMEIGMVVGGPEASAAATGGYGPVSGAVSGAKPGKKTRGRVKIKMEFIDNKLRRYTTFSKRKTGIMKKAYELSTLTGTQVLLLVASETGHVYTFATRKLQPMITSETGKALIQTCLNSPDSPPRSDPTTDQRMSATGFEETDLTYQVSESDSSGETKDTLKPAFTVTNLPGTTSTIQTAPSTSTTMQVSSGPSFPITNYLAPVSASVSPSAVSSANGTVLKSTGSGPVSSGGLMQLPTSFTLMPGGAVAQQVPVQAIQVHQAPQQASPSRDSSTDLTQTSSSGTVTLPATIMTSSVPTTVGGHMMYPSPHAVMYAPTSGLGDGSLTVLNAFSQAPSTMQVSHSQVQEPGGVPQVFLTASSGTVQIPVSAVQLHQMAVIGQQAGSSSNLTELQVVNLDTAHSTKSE
Description: binding assay. As to conditions: ChIP with anti-SRF antibody and PCR, HLK3 treated or not with serum, protein in cells, protein details: endogenous.

Series [2] deals with T1, SRF (serum response factor). The series is described as follows: activity in cells. The settings on record: indirect: luciferase reporter induced dose-dependently by serum, FGF or HGF in HLK3, protein in cells, protein details: endogenous, only the site is given. Background: Reporter assays use an easily measured gene product as a stand-in for the process of interest.
For series [3] the target is unchanged. Description: EMSA. The settings on record: nuclear extract of HLK3 treated or not with serum; anti-SRF antibody added; 6% acrylamide gel; probe printed as 5'-CTATATAAGG X3; protein in an extract; label: 32P. (In general: A gel shift assay detects complexes by their altered migration in electrophoresis.)

For part of these data: At least one result comes from cells or an extract, where the contact may be indirect. Protein sequences can lack the tags named with them.

In the case of “CTATATAAGG (double strand) [Enigma promoter SRE region (chromatin)]”, the binding result in series [1] was “binds”.

For the sequence “CTATATAAGG (double strand) [Enigma promoter SRE-Luc reporter]”, in series [2], the “activity on this sequence” value is on record as “active”.

In the case of “CTATATAAGGCTATATAAGGCTATATAAGG (double strand) [Enigma promoter SRE x3 probe]”, in series [3], the binding result is given as “binds”.
